Results reported in PubChem BioAssay AID2685 (National Center for Advancing Translational Sciences (NCATS), 2010).
This is one part of the list. The main result of the screen is listed elsewhere. These columns were measured beside it and carry no call. The list favours compounds with an active or inconclusive main result. The note in brackets gives the kind of curve behind each potency; many fits are weak.

Experiment: qHTS Assay for Lipid Storage Modulators in Drosophila S3 Cells;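 as to cell number change: cells counted by Cell Tracker Red CMTPX staining in the red channel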
Conditions: BODIPY lipid droplet fluorescence, 18-24 h; for cell number change: measured here: cell count max response, cells fed with added oleic acid
Method in brief: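 Laser-scanning cytometry quantifies lipid droplet accumulation (500–530 nm total intensity; droplet/cell object ratio) in oleic acid-fed (400 uM added) Drosophila S3 cells treated with a concentration series. 20 uM Triacsin C defined 100% inhibition.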

[1] = measured here: lipid fluorescence (Fed channel) AC50, cells fed with added oleic acid
[2] = measured here: cell number channel AC50, cells fed with added oleic acid

CC1(c2ccccc2)CC(C)(C)N(C(=O)c2cc([N+](=O)[O-])cc([N+](=O)[O-])c2)c2ccccc21 (centres undefined)
cell number change: -30.2%
AC50 [1]: 29.1 µM [falling, single point]

O=C(COC(=O)c1cc(NS(=O)(=O)c2cccs2)ccc1O)Nc1cc(Cl)ccc1Cl
cell number change: 0.339%
AC50 [1]: 0.13 µM [rising, full curve, poor fit]

Cc1ccc(OCCNC(=O)CNC(=O)c2ccccc2Cl)cc1
cell number change: -3.61%
AC50 [1]: 0.00411 µM [falling, full curve, poor fit]

Cc1cc(C)n(-c2ccc(C(=O)Nc3sccc3C(N)=O)cc2)n1
cell number change: 2.6%
AC50 [1]: 5.17 µM [falling, full curve, poor fit]

Cc1ccc(CNC(=O)c2ccc(N3CCCC3=O)cc2)cc1
cell number change: 55.1%
AC50 [2]: 5.8 µM [rising, partial curve]
AC50 [1]: 29.1 µM [rising, single point]

c1cnn(Cc2cnc(N3CCOCC3)s2)c1
cell number change: -49.8%
AC50 [2]: 29.1 µM [falling, single point]
AC50 [1]: 23.1 µM [falling, single point]

Cc1ccc(C2=Nc3ccccc3NC(C)(c3ccc(C)o3)C2)o1 (centres undefined)
AC50 [2]: 2.59 µM [rising, partial curve]
AC50 [1]: 2.06 µM [rising, partial curve]

COC(=O)CNC(=O)COC(=O)c1cc(SC)ccc1Cl
cell number change: 4.15%
AC50 [2]: 0.731 µM [falling, single point]

Cc1ccc(C)c(N2N=C(C(=O)NCCN3C(=O)S/C(=C\c4cccnc4)C3=O)CCC2=O)c1
cell number change: -30.9%
AC50 [2]: 10.3 µM [falling, partial curve]

COc1ccc(NC(=O)CN2CCCC2c2cccs2)cc1S(=O)(=O)N1CCCCC1 (centres undefined)
cell number change: -1.81%
AC50 [1]: 29.1 µM [rising, single point]

CC12CCC(=O)N1C(C(=O)NCc1ccccc1F)CS2 (centres undefined)
AC50 [1]: 29.1 µM [rising, single point]

CC1CC(C)CN(CCCNC(=O)CN2C(=O)c3cccnc3Oc3ccc(Cl)cc32)C1 (centres undefined)
cell number change: 12.9%
AC50 [1]: 0.103 µM [rising, single point]

CCOc1ccc(S(=O)(=O)N2CCC(C(=O)OCc3cccc(OC)c3OC)CC2)cc1
cell number change: -8.43%
AC50 [1]: 6.51 µM [falling, single point]

CC(=O)Nc1ccc2[nH]c(C)cc(=O)c2c1
cell number change: 24.5%

CC(C)c1ccc(NC(=S)NNc2ccc(Cl)c(C(=O)O)c2)cc1
cell number change: 20.7%
AC50 [1]: 9.2 µM [rising, partial curve, poor fit]

CC(C)(C)C1CCC(OC(=O)CCC(=O)Nc2ccccc2)CC1 (centres undefined)
cell number change: -28.6%

O=C(NCc1cccs1)C1CC(O)CN1C(=O)Nc1ccccc1 (centres undefined)
cell number change: -1.67%
AC50 [1]: 4.11 µM [rising, partial curve]

CC(=O)Nc1nc(-c2cc([N+](=O)[O-])cs2)cs1
cell number change: -9.52%
AC50 [1]: 0.092 µM [rising, single point]

CCc1ccc(CN2CCC(n3nccc3NC(=O)c3ccccc3Cl)CC2)cc1
cell number change: 33.7%

NC(=O)CC(NC(=O)c1ccccc1)c1ccc(NCCc2ccc(Cl)cc2)c([N+](=O)[O-])c1 (centres undefined)
cell number change: 3.18%
AC50 [1]: 2.31 µM [rising, single point]

Oc1ccc(-c2cnc(-c3ccc(O)cc3)nc2)cc1
cell number change: 4.94%
AC50 [1]: 23.1 µM [rising, partial curve]

CN(CC1COc2ccccc2O1)C(=O)c1cc(COc2c(F)cccc2F)on1 (centres undefined)
cell number change: -1.36%
AC50 [1]: 20.6 µM [falling, single point]

O=C(Nc1ccc(OC(F)(F)F)cc1)c1ccc2nccnc2c1
cell number change: 56.6%
AC50 [2]: 29.1 µM [rising, single point]

O=C(Nc1cccc(-c2cn3cccnc3n2)c1)Nc1ccccc1F
cell number change: -5.65%

CCOc1ccc(N2C(=O)CC(SC(=NC)Nc3cccc(F)c3)C2=O)cc1 (centres undefined)
cell number change: 11.5%
AC50 [2]: 0.13 µM [rising, full curve]

FC(F)(F)c1cc(-c2ccc(Cl)cc2)nc(NCc2cccnc2)n1
cell number change: -34.5%
AC50 [2]: 0.92 µM [rising, partial curve]
AC50 [1]: 0.82 µM [rising, single point]

Cc1ccc2c(Cl)cc(Cl)c(OCC(=O)NC(=O)NCc3ccco3)c2n1
cell number change: -6.21%

CCCN1CCC(N(C)CCc2ccc(OC)c(OC)c2)CC1
cell number change: 5.11%
AC50 [1]: 0.00517 µM [rising, full curve, poor fit]

Cc1c(Cl)cccc1NC(=O)COc1ccc(S(=O)(=O)N2CCOCC2)cc1
cell number change: 77.8%
AC50 [2]: 0.082 µM [rising, full curve]
AC50 [1]: 0.92 µM [rising, partial curve]

O=C(O)C1CCN(C(=O)CSc2nc3ccccc3c(=O)n2-c2ccc(Cl)cc2)CC1
cell number change: 3.97%
AC50 [2]: 0.058 µM [rising, full curve, poor fit]

Oc1ccc(-c2c(C3=CCCCC3)sc3ccccc23)cc1
cell number change: 0.971%
AC50 [2]: 6.51 µM [rising, single point]

CC(C(=O)Nc1ccc(S(=O)(=O)N2CCOCC2)cc1)N1CCN(c2ccccn2)CC1 (centres undefined)
cell number change: -0.601%

COCCn1nnnc1C(c1cccs1)N1CCN(c2cc(C)ccc2C)CC1 (centres undefined)
cell number change: 1.64%

O=C(NCCN1CCC(Cc2ccccc2)CC1)C1CCCN(S(=O)(=O)c2cnc[nH]2)C1 (centres undefined)
cell number change: -12.5%

CCc1ccc2[nH]cc(C(=O)N3CCCCCC3)c(=O)c2c1
cell number change: -7.28%
AC50 [1]: 4.61 µM [rising, partial curve, poor fit]

CCN(Cc1nc2cc(Cl)ccc2c(=O)[nH]1)C(=O)c1cccc(NC(=O)c2cccs2)c1
cell number change: 21.2%
AC50 [1]: 13 µM [rising, partial curve]

COc1ccccc1NC(=O)C1=C(C)NC(=O)NC1c1ccc(C)s1 (centres undefined)
cell number change: 14.7%
AC50 [1]: 0.891 µM [rising, full curve, poor fit]

CN(CC(=O)Nc1ccc(Cl)c(C(F)(F)F)c1)C(=O)c1ccc(OCC2CCCO2)cc1 (centres undefined)
cell number change: -6.56%
AC50 [1]: 0.58 µM [falling, single point]

O=C(Nc1ccnn1C1CCN(C(=O)c2ccc(C(F)(F)F)cc2)CC1)C1CC1
cell number change: 30.4%
AC50 [2]: 16.4 µM [rising, single point]
AC50 [1]: 29.1 µM [falling, single point]
